Source: PMC9351435
Results are given in words; binding and its absence hold for the method and conditions named. Binding seen in cells or lysates may run through a third protein. Some results given as binding are weak or reduced against the parent protein; the word gives no strength.

The chains behind the UniProt entries cited, without tags or fusion partners.
UniProt Q16665: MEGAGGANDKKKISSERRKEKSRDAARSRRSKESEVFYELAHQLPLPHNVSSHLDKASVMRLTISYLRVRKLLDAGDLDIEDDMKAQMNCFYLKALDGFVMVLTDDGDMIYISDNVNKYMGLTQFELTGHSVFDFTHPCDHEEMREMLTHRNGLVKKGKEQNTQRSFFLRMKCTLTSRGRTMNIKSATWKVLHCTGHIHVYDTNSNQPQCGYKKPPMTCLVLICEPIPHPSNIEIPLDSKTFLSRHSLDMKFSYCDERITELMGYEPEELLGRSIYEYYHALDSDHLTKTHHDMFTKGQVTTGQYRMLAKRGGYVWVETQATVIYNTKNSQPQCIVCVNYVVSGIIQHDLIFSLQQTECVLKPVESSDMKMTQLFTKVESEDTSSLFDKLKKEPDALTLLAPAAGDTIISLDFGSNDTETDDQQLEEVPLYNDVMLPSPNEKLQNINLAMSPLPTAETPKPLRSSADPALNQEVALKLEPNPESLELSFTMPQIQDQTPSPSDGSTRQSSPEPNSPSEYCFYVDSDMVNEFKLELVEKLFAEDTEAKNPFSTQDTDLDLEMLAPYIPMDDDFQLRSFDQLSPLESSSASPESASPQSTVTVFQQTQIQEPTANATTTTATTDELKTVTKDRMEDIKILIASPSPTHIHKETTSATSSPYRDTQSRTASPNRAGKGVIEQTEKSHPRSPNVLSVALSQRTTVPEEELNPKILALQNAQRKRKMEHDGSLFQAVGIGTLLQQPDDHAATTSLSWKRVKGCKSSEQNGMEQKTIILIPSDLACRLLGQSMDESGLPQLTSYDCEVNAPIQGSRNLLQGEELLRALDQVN
UniProt Q9GZT9: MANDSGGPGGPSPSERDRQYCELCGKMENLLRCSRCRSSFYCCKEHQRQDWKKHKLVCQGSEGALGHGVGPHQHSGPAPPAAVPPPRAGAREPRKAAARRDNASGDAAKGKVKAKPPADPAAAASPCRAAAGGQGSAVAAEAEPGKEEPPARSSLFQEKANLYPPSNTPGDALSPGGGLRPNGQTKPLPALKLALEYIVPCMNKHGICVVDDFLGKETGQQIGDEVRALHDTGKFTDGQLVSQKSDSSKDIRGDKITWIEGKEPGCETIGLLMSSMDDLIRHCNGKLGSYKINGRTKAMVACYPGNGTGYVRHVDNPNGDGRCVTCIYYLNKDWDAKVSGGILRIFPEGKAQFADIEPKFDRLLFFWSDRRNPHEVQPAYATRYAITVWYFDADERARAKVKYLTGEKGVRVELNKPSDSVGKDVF
UniProt P40337: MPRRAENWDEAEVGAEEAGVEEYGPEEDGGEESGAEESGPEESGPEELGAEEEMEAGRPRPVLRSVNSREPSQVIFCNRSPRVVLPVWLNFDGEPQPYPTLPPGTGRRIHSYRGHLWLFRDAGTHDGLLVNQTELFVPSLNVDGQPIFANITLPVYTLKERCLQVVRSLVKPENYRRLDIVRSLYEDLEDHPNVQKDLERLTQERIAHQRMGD
UniProt P46937: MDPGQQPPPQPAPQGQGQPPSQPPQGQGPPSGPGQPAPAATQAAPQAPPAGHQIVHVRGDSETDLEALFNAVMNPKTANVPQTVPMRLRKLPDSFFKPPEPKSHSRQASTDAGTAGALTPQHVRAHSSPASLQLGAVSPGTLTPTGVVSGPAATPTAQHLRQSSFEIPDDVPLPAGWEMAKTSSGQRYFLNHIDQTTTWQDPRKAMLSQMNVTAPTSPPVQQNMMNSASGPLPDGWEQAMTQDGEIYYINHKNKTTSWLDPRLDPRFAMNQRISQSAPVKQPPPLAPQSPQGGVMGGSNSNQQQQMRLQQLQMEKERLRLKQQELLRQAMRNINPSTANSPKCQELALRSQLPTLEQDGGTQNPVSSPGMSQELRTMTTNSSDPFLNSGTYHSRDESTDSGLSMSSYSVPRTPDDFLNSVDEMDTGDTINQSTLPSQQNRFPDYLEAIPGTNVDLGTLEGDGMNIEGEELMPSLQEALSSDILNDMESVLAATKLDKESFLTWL
UniProt Q9GZV5: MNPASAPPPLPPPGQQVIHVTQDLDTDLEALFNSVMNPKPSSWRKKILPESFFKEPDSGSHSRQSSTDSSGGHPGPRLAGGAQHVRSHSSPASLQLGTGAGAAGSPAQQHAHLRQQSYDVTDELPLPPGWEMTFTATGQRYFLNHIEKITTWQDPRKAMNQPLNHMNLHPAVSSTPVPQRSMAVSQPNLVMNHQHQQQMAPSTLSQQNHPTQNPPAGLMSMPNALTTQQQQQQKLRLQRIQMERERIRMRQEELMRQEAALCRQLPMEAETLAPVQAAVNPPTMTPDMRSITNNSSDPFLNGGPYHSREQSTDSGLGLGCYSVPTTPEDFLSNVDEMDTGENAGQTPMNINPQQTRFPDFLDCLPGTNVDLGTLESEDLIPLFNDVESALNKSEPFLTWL

Legend:
[1] = target: HIF1α (human (endogenous in A549 and H1650)) (UniProt Q16665); experiment: proximity ligation; PLA on a human lung tumor tissue microarray (normal lung, adenocarcinoma, squamous cell carcinoma, metastases)
[2] = target: prolyl hydroxylase 2 (PHD2) (human (endogenous in A549 and H1650)) (UniProt Q9GZT9); experiment: proximity ligation; Duolink PLA on fixed, permeabilised A549 and H1650 cells with pairs of primary antibodies; cells in normoxia, hypoxia (1% O2, 24 h) or treated with DMOG; single-antibody controls
[3] = target: von Hippel–Lindau (VHL) protein (human (endogenous in A549 and H1650)) (UniProt P40337); experiment: as above
[4] = target: HIF1α (human (endogenous in A549 and H1650)) (UniProt Q16665); experiment: as above
[5] = target: HIF1α (human (endogenous in A549 and H1650)) (UniProt Q16665); experiment: proximity ligation; PLA on mouse lung-xenograft tumour tissues
[6] = target: HIF1α (human (endogenous in A549 and H1650)) (UniProt Q16665); experiment: proximity ligation; PLA on human renal cell carcinoma tissue samples (TMA) against normal kidney
[7] = target: prolyl hydroxylase 2 (PHD2) (human (endogenous in A549 and H1650)) (UniProt Q9GZT9); experiment: co-IP; IP-Western blot of endogenous proteins from A549 and H1650 lysates; normoxic or hypoxic cells, also after PHD2 siRNA, DMOG or visudyne; control IgG IP
[8] = target: von Hippel–Lindau (VHL) protein (human (endogenous in A549 and H1650)) (UniProt P40337); experiment: as above
[9] = target: HIF1α (human (endogenous in A549 and H1650)) (UniProt Q16665); experiment: as above
[10] = target: Yes-associated protein 1 (YAP1) (human (endogenous in A549 and H1650)) (UniProt P46937); experiment: as above

With “Yes-associated protein 1 (YAP1) (from UniProt P46937 1-504)” as the substance, how does the binding [1] read?
Its binding is “binds”.

And the binding [2]?
The binding was “binds”.

What about the binding [3] of the same substance?
Its binding is “binds”.

And the binding [4]?
Its binding is “binds”.

And the binding [5]?
The binding was “binds”.

What about the binding [6] of the same substance?
The binding was “binds”.

What about the binding [7] of the same substance?
The binding was “binds”.

And the binding [8]?
The binding was “binds”.

What about the binding [9] of the same substance?
Its binding is “binds”.

How did the binding [7] turn out when TAZ (from UniProt Q9GZV5 1-400) was run?
Its binding is “binds weakly”.

“von Hippel–Lindau (VHL) protein (from UniProt P40337 1-213)” was tested. Which binding [10] did it give?
The binding was “binds”.

Which binding [10] does the source give for HIF1α (from UniProt Q16665 1-826) here?
The binding was “binds”.
